According to US10034836B2, “Formulations of guanylate cyclase C agonists and methods of use” (SYNERGY PHARMACEUTICALS, INC., priority 2008, dated 2018):
At least one peptide structure holds a part that was inferred or is arguable (an end, a ring closure or a residue). Some results were stated once for a whole list of compounds, not compound by compound. Where a SMILES comes first, the peptide text is derived from it. Bridges are numbered along the chain shown (N, C = ends). [ ]: non-standard residue; d: D form.

Chains of the proteins cited; added tags and fusions are not shown. Residues count along the entry.
UniProt P25092, 24-1073: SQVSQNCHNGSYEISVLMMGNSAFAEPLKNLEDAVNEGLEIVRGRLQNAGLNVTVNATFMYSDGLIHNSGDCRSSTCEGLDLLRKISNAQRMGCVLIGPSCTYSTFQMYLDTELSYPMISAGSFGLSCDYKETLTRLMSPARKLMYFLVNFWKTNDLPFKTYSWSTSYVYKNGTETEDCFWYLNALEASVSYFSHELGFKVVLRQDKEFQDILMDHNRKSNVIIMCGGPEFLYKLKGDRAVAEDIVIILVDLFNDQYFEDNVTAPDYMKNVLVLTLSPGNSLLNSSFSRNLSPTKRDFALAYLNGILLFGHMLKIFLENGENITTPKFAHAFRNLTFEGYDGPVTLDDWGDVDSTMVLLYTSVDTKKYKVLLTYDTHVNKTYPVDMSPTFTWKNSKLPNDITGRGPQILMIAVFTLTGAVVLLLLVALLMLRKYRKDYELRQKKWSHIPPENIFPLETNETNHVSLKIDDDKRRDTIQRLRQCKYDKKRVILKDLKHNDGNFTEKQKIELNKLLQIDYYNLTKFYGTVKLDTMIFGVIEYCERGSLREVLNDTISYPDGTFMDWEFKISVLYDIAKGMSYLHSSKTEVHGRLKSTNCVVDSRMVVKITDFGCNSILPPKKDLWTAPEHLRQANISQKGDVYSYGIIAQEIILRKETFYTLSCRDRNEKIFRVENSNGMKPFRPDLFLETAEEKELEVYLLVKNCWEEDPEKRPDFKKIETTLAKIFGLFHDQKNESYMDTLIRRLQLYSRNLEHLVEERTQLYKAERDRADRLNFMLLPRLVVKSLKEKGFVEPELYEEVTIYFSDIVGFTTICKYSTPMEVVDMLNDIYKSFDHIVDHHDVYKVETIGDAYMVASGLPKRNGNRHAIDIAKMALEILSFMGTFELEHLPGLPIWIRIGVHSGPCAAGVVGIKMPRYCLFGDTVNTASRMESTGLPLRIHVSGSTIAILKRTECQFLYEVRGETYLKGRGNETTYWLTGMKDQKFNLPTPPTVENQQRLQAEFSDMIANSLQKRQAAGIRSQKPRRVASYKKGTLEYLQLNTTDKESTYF

Molecular target: T1, intestinal GC-C receptor (Homo sapiens, UniProt P25092)
T1 construct: confluent monolayers of T-84 cells in 24-well plates; host or cells: T84 human colon carcinoma cells
Test: Cyclic GMP stimulation assay in T84 cells
Format: cell-based
Excerpt: FIG. 4: Biological activity of truncated peptides of 16-mer SP-304, as measured by stimulation of cGMP synthesis in T84 cells. SP-338 15-mer peptide is indentical to SP-304 except that it lacks Leu at the C-terminus. SP-327, SP-329 and SP-331 lack Leu at their C-termini relative to their corresponding parents, SP-326, SP-328 and SP-330, respectively. Data points shown are the average of duplicate measurements.
FIG. 5: Stimulation of cGMP synthesis in T84 cells by SP-304 and similar analogs. T84 cells were exposed to test peptides for 30 min and cell lysates were then used to determine intracellular cGMP levels. Data points shown are the average of triplicate measurements±SD.
FIG. 6: Stimulation of cGMP synthesis in T84 cells by SP-339 (linaclotide) and other linaclotide analogs. […]
After the 30 min incubation, the medium was aspirated and the reaction was terminated by the addition of 3% perchloric acid. Following centrifugation and the addition of NaOH (0.1 N) to neutralize the pH, intracellular cGMP levels were determined in lysates using a cGMP ELISA kit (Cat. No. 581021; Cayman Chemical, Ann Arbor, Mich.). […]
An additional strategy to render peptides more resistant towards digestion by digestive proteases is to peggylate them at the N- and C-terminus. […] Cyclic GMP synthesis in T84 cells was measured by the method as described above.

| Compound | ability to stimulate cGMP synthesis in T84 cells relative to SP-304 (30 min exposure (FIG. 5)) | reduction in biological potency relative to counterpart parent peptide (peptide 1.0 μM, 30 min, parents SP-326, SP-328 and SP-330, respectively (FIG. 4)) |
| --- | --- | --- |
| CC(C)C[C@@H]1NC(=O)[C@H](CCC(=O)O)NC(=O)[C@@H](NC(=O)[C@H](CCC(=O)O)NC(=O)[C@H](CC(=O)O)NC(=O)[C@@H](N)CC(N)=O)CSSC[C@@H]2NC(=O)[C@H](C)NC(=O)[C@H](C(C)C)NC(=O)[C@H](CC(N)=O)NC(=O)[C@H](C(C)C)NC(=O)[C@H](CSSC[C@@H](C(=O)N[C@H](CC(C)C)C(=O)O)NC(=O)CNC(=O)[C@H]([C@@H](C)O)NC2=O)NC1=O [SP-332, Asn^1-Asp^2-Glu^3-Cys^4-Glu^5-Leu^6-Cys^7-Val^8-Asn^9-Val^10-Ala^11-Cys^12-Thr^13-Gly^14-Cys^15-dLeu^16] (H-NDECELCVNVACTGC[dL]-OH; disulfide 4-12, 7-15) | comparable ability | – |
| Cys^1-Glu^2-Leu^3-Cys^4-Val^5-Asn^6-Val^7-Ala^8-Cys^9-Thr^10-Gly^11-Cys^12 (CELCVNVACTGC) [SP-331] | – | 20-25% |
